The test system of this data set is liver transcriptome. The format is in vivo, mice. The note with it: NASH-diet; leucine 0.17 or glycine 0.33 mg/g/day. The procedure:
Library preparation and sequencing were performed by the U-M DNA Sequencing Core on a NovaSeq 6000 Sequencing System (Illumina). RNA-sequencing and pathway analyses were performed as described.
Total RNA from mouse liver samples was extracted as described above. Library preparation and sequencing were performed by the University of Michigan DNA Sequencing Core. RNA was assessed for quality using the TapeStation (Agilent, Santa Clara, Calif.). […] Final libraries were checked for quality and quantity by TapeStation (Agilent) and qPCR using Kapa's library quantification kit for Illumina Sequencing platforms (Kapa Biosystems, KK4835). […]
The quality of the raw Fastq files was checked through FastQC v0.11.8 (https://www.bioinformaties.babraham.ac.uk/projects/fastqc/). Trimmomatic v.0.35 was used to trim the low-quality reads with the parameters: SLIDINGWINDOW:4:20 MINLEN:25.12 The resulted high-quality reads were then mapped to the mouse reference genome (GRCm38.90) using HISAT2 v.2.1.0.13 Gene level quantification was performed using HTSeq-counts v0.6.0 based on the GRCm38.90 genome annotations.14 The R package DESeq2 was then used to identify significant differentially expressed genes. […] 16 The significance of the enrichment was determined by right-tailed Fisher's exact test followed by Benjamini-Hochberg multiple testing adjustment. […]

In the case of `NCC(=O)O` [glycine, reference compound], the “Number of DEG compared to CD (volcano plot)” value amounted to 1300 DEG. The same measure for `CC(C)C[C@H](N)C(=O)O` [leucine]: 3145 DEG.
